PubChem BioAssay AID1347076 (National Center for Advancing Translational Sciences (NCATS), 2019)
About 13,000 (3.2%) of roughly 400,000 compounds were called active. Inconclusive means that the source gave no clear call. Such entries were picked first, then a sample of the others. The call rests on the fitted dose curve; in most records, active means well fitted cell-killing curve with a large enough effect; inconclusive means small, poorly fitted or top-dose-only effect, or effect the other way; inactive means flat fitted curve, though single readings scatter. Potencies of inconclusive entries are doubtful fits and often do not repeat.

Assay: qHTS assay for MDR1-selective chemotherapeutics: Primary screen using the drug-selected MDR subline cells KB-V1; further: nearly all actives have a fitted effect of over 60% in size
Conditions: KB-V1 MDR cells viability, CellTiter-Glo, 72 h; activity change, negative = cytotoxicity: at 46.1 µM (top of the series)
Summary of the method: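 In this primary screen, KB-V1 cells overexpressing P-gp are incubated with library compounds (lowest to highest concentration) for 72 h at 37 degrees C before a luminescent ATP viability read.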
On the % scale 0 is the no-effect control and ±100 the full control effect; potency means the concentration at half of the fitted maximal effect.

Question: With `Cc1ccc(-c2csc(N(CC3CCCO3)C(=O)c3ccco3)n2)cc1` (configuration not stated) as the compound, how does the Potency read?
Answer: inconclusive: 32.6 µM [cytotoxic, single point]

Question: For `c1ccc(COc2ccc(OCCN3CCCCC3)cc2)cc1`, which Potency is on record?
Answer: inconclusive: 16.4 µM [cytotoxic, single point]

Question: For `CCCCn1c(CN(C)Cc2ccccc2)nc2c1c(=O)n(C)c(=O)n2C`, which Potency is on record?
Answer: active: 2.31 µM

Question: With `COc1cccc(NC(=S)N/N=C2/CCCCc3ccccc32)c1` as the compound, how does the “activity change, negative = cytotoxicity” value read?
Answer: inactive: 4.98%

Question: Which Potency does the source give for `Cc1ccccc1CS(=O)(=O)Cc1ccc(C(=O)NCc2ccc(F)cc2)o1` here?
Answer: inconclusive: 29.1 µM [cytotoxic, single point]

Question: Which Potency does the source give for `CCCC(=O)N1CCN(c2ccc(NC(=O)c3ccc([N+](=O)[O-])o3)cc2)CC1` here?
Answer: inconclusive: 18.4 µM [cytotoxic, single point]

Question: With `CN(C)/C=C/c1onc(-c2ccccc2Cl)c1C#N` as the compound, how does the “activity change, negative = cytotoxicity” value read?
Answer: inactive: -15.4%

Question: With `COc1ccc(-c2coc3c(C(=O)Nc4cc(OC)c(OC)c(OC)c4)cccc23)c(C)c1` as the compound, how does the Potency read?
Answer: active: 13 µM

Question: Which Potency does the source give for `NC(N)=Nc1ccc(C=C2C=Cc3ccccc32)cc1` here?
Answer: inconclusive: 20.6 µM [cytotoxic, single point]

Question: Which “activity change, negative = cytotoxicity” value does the source give for `CC(C)C(=O)OCc1cc(=O)n2nc(C3CCCCC3)sc2n1` here?
Answer: inactive: 8.24%

Question: For `O=C(NCc1cccnc1)c1cccc(S(=O)(=O)Nc2ccc(F)cc2)c1`, which “activity change, negative = cytotoxicity” value is on record?
Answer: inactive: 22.2%

Question: Which Potency does the source give for `C=CCNC(=O)C(=O)Nc1ccc2c(c1)N(S(=O)(=O)c1cccs1)CCC2` here?
Answer: active: 23.1 µM

Question: For `COc1ccccc1C(=O)Nc1ccccc1C(=O)Nc1ccccc1`, which Potency is on record?
Answer: inconclusive: 4.11 µM [cytotoxic, full curve, poor fit]

Question: Which Potency does the source give for `CCN(CC(=O)Nc1c(F)cccc1F)C(=O)C1CCN(S(=O)(=O)c2ccc(C)c(C)c2)CC1` here?
Answer: inconclusive: 32.6 µM [cytotoxic, single point]

Question: With `CC(C)(C)c1ccc(-c2noc(CCC(=O)N3CCOCC3)n2)cc1` as the compound, how does the Potency read?
Answer: inconclusive: 14.6 µM [cytotoxic, partial curve]

Question: For `COC(=O)c1ccc(OC)c(-c2c(OC)cc(OC)cc2OC)c1`, which Potency is on record?
Answer: inconclusive: 29.1 µM [rising, single point]

Question: For `COc1ccc(CNC(=O)C2CCN(S(=O)(=O)c3cccc4nonc34)CC2)cc1OC`, which “activity change, negative = cytotoxicity” value is on record?
Answer: inactive: 28.9%

Question: With `Cc1ccc(NC(=O)CSc2nnc(N)s2)c(C)c1` as the compound, how does the “activity change, negative = cytotoxicity” value read?
Answer: inactive: 11.5%

Question: With `CCOC(=O)[C@H]1[C@H]2COc3ccc(C)cc3[C@@H]2N2C(=O)CN(CC3CCCO3)C(=O)[C@@]12C` (some centres not stated) as the compound, how does the “activity change, negative = cytotoxicity” value read?
Answer: inactive: -6.41%

Question: For `CC(C)N=C(NS(=O)(=O)c1ccccc1)C(Cl)(Cl)Cl`, which Potency is on record?
Answer: active: 23.1 µM

Question: Which Potency does the source give for `N=c1c(-c2nc3ccccc3[nH]2)cc(C(=O)c2cccs2)nn1-c1ccccc1` here?
Answer: inconclusive: 29.1 µM [cytotoxic, partial curve, poor fit]

Question: For `O=C(CSc1nc2ccccc2[nH]1)NC1CCCc2ccccc21` (configuration not stated), which “activity change, negative = cytotoxicity” value is on record?
Answer: inactive: -4.67%

Question: For `CC(/C=C/c1cccc([N+](=O)[O-])c1)=N/NC(=O)c1cccnc1`, which Potency is on record?
Answer: inconclusive: 23.1 µM [cytotoxic, single point]

Question: Which “activity change, negative = cytotoxicity” value does the source give for `NS(=O)(=O)c1cccc(NC(=O)COC(=O)CN2C(=O)c3ccccc3C2=O)c1` here?
Answer: inactive: -1.55%

Question: Which “activity change, negative = cytotoxicity” value does the source give for `CCOc1ccc(NS(=O)(=O)c2ccc(NC(=O)N3CCCC3)cc2)cc1` here?
Answer: inactive: -4.09%

Question: Which Potency does the source give for `O=C(CSc1nnc(CNC(=O)c2c(F)cccc2Cl)o1)Nc1cccc(F)c1` here?
Answer: inconclusive: 23.1 µM [rising, single point]

Question: With `CC1=C(C(=O)N2CCCCCC2)CC(CC(=O)NCCCN(C)C)C(=O)N1Cc1ccc(F)cc1` (configuration not stated) as the compound, how does the “activity change, negative = cytotoxicity” value read?
Answer: inactive: -1.68%

Question: Which Potency does the source give for `CC(NC(=O)c1c(O)c2ccccc2n(C)c1=O)c1ccccc1` (configuration not stated) here?
Answer: inconclusive: 18.4 µM [cytotoxic, single point]

Question: Which Potency does the source give for `COc1ccccc1NC(=O)COC(=O)CCc1ccc(S(=O)(=O)N2CCOCC2)cc1` here?
Answer: inconclusive: 29.1 µM [rising, single point]

Question: With `CCOC(=O)/C(C)=C1\NC(C)(C)Cc2ccccc21` as the compound, how does the “activity change, negative = cytotoxicity” value read?
Answer: inactive: 0.505%

Question: With `CN(Cc1nc(-c2ccncc2)no1)S(=O)(=O)c1ccc(Br)cc1` as the compound, how does the Potency read?
Answer: active: 14.6 µM

Question: Which Potency does the source give for `Cc1ccc(OCCCC(=O)Nc2ccc(N3CCOCC3)cc2)c(C)c1` here?
Answer: inconclusive: 7.31 µM [cytotoxic, partial curve]

Question: Which “activity change, negative = cytotoxicity” value does the source give for `C[C@@H]1CN([C@H](C)CO)C(=O)CCCn2cc(nn2)CO[C@H]1CN(C)C(=O)Nc1cccc(F)c1` here?
Answer: inactive: 0%

Question: With `COc1ccc(S(=O)(=O)N2CCN(C3Cc4ccccc4C3)CC2)cc1` as the compound, how does the Potency read?
Answer: active: 20.6 µM

Question: With `COc1ccccc1NC(=O)C1=C(C)Nc2nc(SCc3cc(C)ccc3C)nn2C1c1ccccc1` (configuration not stated) as the compound, how does the “activity change, negative = cytotoxicity” value read?
Answer: inactive: -19.7%

Question: With `CCC(CC)C(=O)c1c[nH]c(C(=O)NCc2ccccc2OC)c1` as the compound, how does the “activity change, negative = cytotoxicity” value read?
Answer: inactive: -4.03%

Question: For `CC(C)Cn1c(/C=C/c2ccc(F)cc2)nc2ccccc21`, which Potency is on record?
Answer: inconclusive: 13 µM [cytotoxic, partial curve]

Question: With `O=C(c1cccs1)N1CCCc2cc(NS(=O)(=O)c3ccc(F)cc3)ccc21` as the compound, how does the “activity change, negative = cytotoxicity” value read?
Answer: inactive: 1.24%

Question: With `CCCCN(CC)C(=O)Cn1cnc2ccc(S(=O)(=O)N3CCC(C)CC3)cc2c1=O` as the compound, how does the Potency read?
Answer: inconclusive: 10.3 µM [cytotoxic, partial curve, poor fit]

Question: For `COc1ccccc1N(C(=O)c1csnn1)C(C(=O)NC1CCCC1)c1ccccc1` (configuration not stated), which Potency is on record?
Answer: inconclusive: 14.6 µM [cytotoxic, partial curve]

Question: For `COc1ccc(C(=O)Nc2ccc(S(=O)(=O)N3CCCCC3C)cc2)c(OC)c1OC` (configuration not stated), which “activity change, negative = cytotoxicity” value is on record?
Answer: inactive: -4.51%

Question: With `O=C(CSc1ccccc1)Nc1cc(Cl)ccc1Oc1ccccc1` as the compound, how does the Potency read?
Answer: active: 18.4 µM

Question: With `Cc1ccc(NC(=O)CCOc2ccccc2C)cc1F` as the compound, how does the Potency read?
Answer: inconclusive: 20.6 µM [cytotoxic, single point]

Question: With `Cc1cccc(C(=O)Nc2ccccc2C(=O)NCc2ccco2)c1` as the compound, how does the Potency read?
Answer: inconclusive: 5.8 µM [cytotoxic, partial curve]

Question: With `CCC(=C/c1sc2ccc3ccccc3c2[n+]1C)/C=C1\Sc2ccc3ccccc3c2N1C` as the compound, how does the Potency read?
Answer: inconclusive: 29.1 µM [cytotoxic, partial curve, poor fit]

Question: Which Potency does the source give for `Cc1ccc(-n2ncc3c(Nc4c(C)n(C)n(-c5ccccc5)c4=O)ncnc32)c(C)c1` here?
Answer: inconclusive: 3.66 µM [cytotoxic, partial curve, poor fit]

Question: With `O=C(CCS(=O)(=O)c1ccc(Br)s1)NC1CCCC1` as the compound, how does the Potency read?
Answer: inconclusive: 18.4 µM [cytotoxic, single point]

Question: For `Cc1ccc(CS(=O)(=O)CC(C)(O)c2ccccc2)cc1` (configuration not stated), which Potency is on record?
Answer: inconclusive: 20.6 µM [rising, single point]

Question: For `O=C(CN1C(=O)/C(=C/c2ccc(F)cc2)SC1=S)NC1C=CS(=O)(=O)C1` (configuration not stated), which Potency is on record?
Answer: inconclusive: 29.1 µM [rising, single point]

Question: For `O=C1CCN(Cc2ccccc2)S(=O)(=O)c2ccc(C(F)(F)F)cc21`, which Potency is on record?
Answer: inconclusive: 16.4 µM [cytotoxic, single point]

Question: For `COc1ccccc1NC(=O)CC1Nc2ccccc2NC1=O` (configuration not stated), which Potency is on record?
Answer: inconclusive: 20.6 µM [cytotoxic, single point]

Question: With `CCc1ccc(NC(=O)CN(CC(=O)Nc2ccc(CC)cc2)CC(C)O)cc1` (configuration not stated) as the compound, how does the Potency read?
Answer: inconclusive: 29.1 µM [rising, single point]

Question: With `O=C(NCc1ccccc1)c1ccccc1-c1nc2ccccc2[nH]1` as the compound, how does the Potency read?
Answer: inconclusive: 20.6 µM [cytotoxic, single point]

Question: With `C=C(C)COc1ccc(-c2n[nH]c(C)c2-c2ccc(OC)c(OC)c2)c(O)c1` as the compound, how does the Potency read?
Answer: active: 5.8 µM

Question: Which Potency does the source give for `O=C(Nn1cnnc1)c1ccc(F)c(S(=O)(=O)N2CCCCC2)c1` here?
Answer: inconclusive: 23.1 µM [rising, single point]

Question: With `CCO[C@@H]1OC(C(=O)N2CCN(Cc3ccccc3)CC2)=C[C@H](c2ccc(C(F)(F)F)cc2)[C@H]1CCCO` as the compound, how does the Potency read?
Answer: inconclusive: 29.1 µM [cytotoxic, single point]

Question: Which Potency does the source give for `Cc1ccc(NC(=O)c2cc(S(=O)(=O)NCCC3=CCCCC3)ccc2F)cc1` here?
Answer: active: 2.31 µM

Question: With `Cc1ccc(NC(=S)N(CCCN2CCCC2)Cc2cccn2Cc2ccc(Cl)cc2)cc1Cl` as the compound, how does the “activity change, negative = cytotoxicity” value read?
Answer: inactive: -0.0578%

Question: For `COc1ccccc1NC(=O)CN(Cc1ccco1)C(=O)c1cc(Cl)c(OC)c(OC)c1`, which Potency is on record?
Answer: inconclusive: 7.31 µM [cytotoxic, partial curve, poor fit]

Question: Which “activity change, negative = cytotoxicity” value does the source give for `O=C(CCn1c(=O)c2sccc2n(Cc2cc(=O)n3ccccc3n2)c1=O)NCc1ccco1` here?
Answer: inactive: -7.15%

Question: For `COc1ccc(-n2c(-c3ccco3)nc3c(cnn3-c3ccc(C)cc3)c2=O)cc1`, which Potency is on record?
Answer: inconclusive: 4.61 µM [cytotoxic, partial curve]

Question: With `Cc1ccc(NCC(=O)N/N=C/c2cccc(Oc3ccccc3)c2)cc1` as the compound, how does the Potency read?
Answer: inconclusive: 29.1 µM [cytotoxic, single point]

Question: For `Cc1nnc(SCC(=O)N2c3ccccc3C(C)(c3ccc(Cl)cc3)CC2(C)C)s1` (configuration not stated), which Potency is on record?
Answer: inconclusive: 5.8 µM [cytotoxic, single point]

Question: Which Potency does the source give for `O=c1cc2c(nn1Cc1c(Cl)cccc1Cl)-c1ccccc1CC2` here?
Answer: inconclusive: 18.4 µM [cytotoxic, single point]

Question: With `CC(C)C(=O)Nc1ccc2nc(SCCOc3ccccc3)sc2c1` as the compound, how does the “activity change, negative = cytotoxicity” value read?
Answer: inactive: 0%

Question: For `O=C(Nc1cc(-c2ccccc2)nn1-c1c(Cl)cccc1Cl)c1ccc(F)cc1`, which “activity change, negative = cytotoxicity” value is on record?
Answer: inactive: 1.49%

Question: With `O=S(=O)(/N=C(/Nc1ccccn1)c1ccccc1)c1ccc(F)cc1` as the compound, how does the activity change, negative = cytotoxicity read?
Answer: inconclusive: -17.3%

Question: For `O=P(O)(Cc1ccccc1)Cc1ccccc1`, which activity change, negative = cytotoxicity is on record?
Answer: inconclusive: -10.6%

Question: Which “activity change, negative = cytotoxicity” value does the source give for `Cc1ccc(NC(=O)C(C)SCC(=O)Nc2ccc(F)cc2)cc1S(=O)(=O)N1CCOCC1` (configuration not stated) here?
Answer: inactive: 16.8%

Question: With `CC(C(=O)NCc1ccccc1)n1c(Cc2cc(F)cc(F)c2)nc2ccccc21` (configuration not stated) as the compound, how does the Potency read?
Answer: inconclusive: 2.59 µM [cytotoxic, full curve]

Question: With `Cc1ccc(C(=O)Nc2nc(-c3cc(Cl)sc3Cl)cs2)cc1` as the compound, how does the “activity change, negative = cytotoxicity” value read?
Answer: inactive: -19.6%

Question: Which Potency does the source give for `Cc1ccc(CNc2ccc(S(=O)(=O)N3CCOCC3)cc2[N+](=O)[O-])cc1` here?
Answer: active: 5.17 µM
